Results published in PubChem BioAssay AID2685 (National Center for Advancing Translational Sciences (NCATS), 2010).
Some of the results follow. The main result of the screen is listed elsewhere. These columns were measured beside it and carry no call. Compounds called inactive in the main read-out are mostly missing here. The note in brackets gives the kind of curve behind each potency; many fits are weak.

Assay: qHTS Assay for Lipid Storage Modulators in Drosophila S3 Cells;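 for cell number change: cells counted by Cell Tracker Red CMTPX staining in the red channel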
Details: BODIPY lipid droplet fluorescence, 18-24 h; for cell number change: measured here: cell count max response, cells fed with added oleic acid
Procedure, shortened: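 Drosophila S3 cells got compounds at several concentrations plus oleic acid (400 uM solution). Laser-scanning cytometry with 488 nm excitation read lipid droplets at 500-530 nm and cells at 575-640 nm. Percent activity was relative to 20 uM Triacsin C.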

[1] = measured here: lipid fluorescence (Fed channel) AC50, cells fed with added oleic acid
[2] = measured here: cell number channel AC50, cells fed with added oleic acid

Row | Compound | cell number change | AC50 [1] | AC50 [2]
1 | Nc1scn[n+]1Cc1cccc2cccnc12 | 7.18% | 14.6 µM [rising, partial curve] | –
2 | Cc1ccc(C)c(NC(=O)c2nc(Cl)ccc2Cl)c1 | 10% | 0.326 µM [rising, partial curve, poor fit] | –
3 | CCc1c(C)c2nncn2[nH]c1=O | -27.1% | – | 0.259 µM [falling, full curve]
4 | CC(=O)c1ccc(NC(=O)CN2C(=O)/C(=C/C(C)=C/c3ccccc3)SC2=S)cc1 | 15.6% | 5.8 µM [falling, single point] | –
5 | COCCn1cnc2c(c1=O)c1nc3ccccc3nc1n2/N=C/c1ccco1 | -16.6% | 8.2 µM [falling, partial curve] | –
6 | Cc1ccccc1NC(=O)Cn1nc(C)c2ccccc2c1=O | 1.37% | 29.1 µM [rising, single point] | –
7 | CCc1ccc(O)c(N=Cc2ccccc2O)c1 | 1.12% | – | –
8 | Cc1cc(NC(=O)C(C)Sc2nnc(NCc3ccco3)s2)no1 (stereo not drawn) | 0.877% | 2.59 µM [falling, single point] | –
9 | O=S(=O)(Nc1ccccc1N1CCOCC1)c1ccc(Cl)s1 | 0.558% | 32.6 µM [falling, single point] | –
10 | CCCn1c(N2CCN(CC(=O)NCc3cccs3)CC2)nc2ccccc21 | – | 6.51 µM [rising, single point] | 4.11 µM [rising, single point]
11 | CCOC(=O)c1sc(-c2ccccc2)nc1C | 5.23% | 29.1 µM [falling, single point] | –
12 | O=C(/C=C/c1c(F)cccc1Cl)Nc1ccncc1 | 26.1% | 3.26 µM [rising, single point] | –
13 | COc1ccc(-n2c(=S)[nH]c3cc(C(=O)NCCCN4CCOCC4)ccc3c2=O)cc1OC | 3.42% | 20.6 µM [rising, single point] | –
14 | Cc1ccc(/C=C/C(=O)N2CCN(c3ncccn3)CC2)o1 | 1.95% | 2.59 µM [rising, partial curve] | –
15 | COc1ccc(CNC(=O)c2c(O)c3cccc4c3n(c2=O)CCC4)cc1 | 14.3% | 0.517 µM [rising, full curve, poor fit] | 0.461 µM [rising, full curve]
16 | Cc1ccsc1C(=O)OCc1csc(-c2ccccc2)n1 | 8.36% | – | –
17 | Cc1nnc(NC(=O)CSc2nccn2Cc2ccccc2)s1 | 16.6% | 7.31 µM [rising, single point] | –
18 | CCOC(=O)N1CCN(S(=O)(=O)c2ccc(C(=O)Nc3nnc(C4CC4)o3)cc2)CC1 | 6.21% | – | –
19 | O=C(CNC(=O)c1ccccc1F)OCCCOC(=O)CNC(=O)c1ccccc1F | -26.7% | – | 0.13 µM [falling, full curve, poor fit]

Not a retest: an excerpt of the list.
Row | Compound | cell number change | AC50 [1] | AC50 [2]
12 | O=C(/C=C/c1c(F)cccc1Cl)Nc1ccncc1 | 26.1% | 3.26 µM [rising, single point] | –
13 | COc1ccc(-n2c(=S)[nH]c3cc(C(=O)NCCCN4CCOCC4)ccc3c2=O)cc1OC | 3.42% | 20.6 µM [rising, single point] | –

(further entries)

Row | Compound | cell number change | AC50 [1] | AC50 [2]
20 | O=C(NNc1c2ccccc2nc2ccccc12)C12CC3CC(CC(C3)C1)C2 | -46% | 20.6 µM [falling, single point] | 20.6 µM [falling, single point]
21 | CC(C)c1c(C(=O)N/N=C/c2ccoc2)nnn1-c1nonc1N | 9.73% | 29.1 µM [rising, single point] | –
22 | COc1ccc(C(=O)NNC(=O)CSc2nnc(C3CC3)n2C)cc1 | 19.2% | 0.116 µM [falling, single point] | –
23 | CN(C)c1cc[n+](CC(=O)Nc2ccc(Oc3ccccc3)cc2)cc1 | 18.6% | – | 6.51 µM [falling, single point]
24 | CCCS(=O)(=O)N1CCC(C(=O)NCCN2CCC(Cc3ccccc3)CC2)CC1 | -11.1% | 2.91 µM [falling, full curve] | –
25 | COc1ccc(NS(=O)(=O)c2ccc3c(c2)OCCO3)cc1OC | 7.89% | – | –
26 | COc1ccc(C(=O)NC2CCN(S(=O)(=O)Cc3ccccc3)CC2)c(OC)c1 | 7.07% | 2.59 µM [rising, partial curve] | –
27 | C/C(=N\NC(=O)c1cc(-c2ccc(Cl)s2)[nH]n1)c1ccncc1 | 5.46% | 29.1 µM [rising, single point] | –
28 | CCOc1ncccc1C(=O)OCc1csc(CC(=O)Nc2ccccc2C)n1 | -3.61% | 29.1 µM [falling, single point] | –
29 | Cc1ccc(NC(=O)c2cc3c(s2)CCCC3)cc1S(=O)(=O)Nc1ccccc1Cl | -25.2% | 29.1 µM [falling, single point] | –
30 | O=C(N[C@@H](Cc1ccccc1)C(=O)NCc1ccc(F)cc1)C1CCNCC1 | -54.4% | – | 20.6 µM [falling, single point]
31 | Cc1cccc(NC(=S)NC(=O)/C=C/c2ccco2)n1 | 82.4% | 1.84 µM [rising, partial curve] | 1.84 µM [rising, full curve]
32 | COc1ccc(C(=O)NCC(=O)N/N=C/C(C)=C/c2ccco2)cc1OC | 32% | 7.31 µM [rising, partial curve] | 3.26 µM [rising, partial curve]
33 | O=C(CO/N=C/c1ccc(Cl)cc1Cl)NNC(=O)c1cccc(Cl)c1 | 46.6% | 7.31 µM [rising, partial curve] | 11.6 µM [rising, partial curve, poor fit]
34 | COc1ccc(N(CC(=O)Nc2ccc(F)c(F)c2)S(=O)(=O)c2c(C)n[nH]c2C)cc1 | -11.8% | 29.1 µM [falling, single point] | 0.00517 µM [falling, full curve, poor fit]
35 | CCC(CO)N=CC1=C(O)CC(C)(C)CC1=O (stereo not drawn) | -3.35% | 6.51 µM [falling, single point] | 0.184 µM [falling, full curve, poor fit]
36 | O=C(Nc1ccccc1)/C(=C/c1cccc(Br)c1)NC(=O)c1ccco1 | -33.1% | 14.6 µM [falling, partial curve, poor fit] | 16.4 µM [falling, single point]
37 | CN(C(=O)c1ccco1)c1nnc(C23CC4CC(CC(C4)C2)C3)s1 | -19.5% | 13 µM [falling, partial curve] | –
